Reference: publication PMC11442835
No constants are given. Whether binding was seen depends on the method and setting. In cells and extracts the contact can be indirect. Some binding calls cover weakened binding; strength is not graded here.

Sequences of proteins named here, by UniProt entry; tags and fusion partners are left off.
UniProt O94972: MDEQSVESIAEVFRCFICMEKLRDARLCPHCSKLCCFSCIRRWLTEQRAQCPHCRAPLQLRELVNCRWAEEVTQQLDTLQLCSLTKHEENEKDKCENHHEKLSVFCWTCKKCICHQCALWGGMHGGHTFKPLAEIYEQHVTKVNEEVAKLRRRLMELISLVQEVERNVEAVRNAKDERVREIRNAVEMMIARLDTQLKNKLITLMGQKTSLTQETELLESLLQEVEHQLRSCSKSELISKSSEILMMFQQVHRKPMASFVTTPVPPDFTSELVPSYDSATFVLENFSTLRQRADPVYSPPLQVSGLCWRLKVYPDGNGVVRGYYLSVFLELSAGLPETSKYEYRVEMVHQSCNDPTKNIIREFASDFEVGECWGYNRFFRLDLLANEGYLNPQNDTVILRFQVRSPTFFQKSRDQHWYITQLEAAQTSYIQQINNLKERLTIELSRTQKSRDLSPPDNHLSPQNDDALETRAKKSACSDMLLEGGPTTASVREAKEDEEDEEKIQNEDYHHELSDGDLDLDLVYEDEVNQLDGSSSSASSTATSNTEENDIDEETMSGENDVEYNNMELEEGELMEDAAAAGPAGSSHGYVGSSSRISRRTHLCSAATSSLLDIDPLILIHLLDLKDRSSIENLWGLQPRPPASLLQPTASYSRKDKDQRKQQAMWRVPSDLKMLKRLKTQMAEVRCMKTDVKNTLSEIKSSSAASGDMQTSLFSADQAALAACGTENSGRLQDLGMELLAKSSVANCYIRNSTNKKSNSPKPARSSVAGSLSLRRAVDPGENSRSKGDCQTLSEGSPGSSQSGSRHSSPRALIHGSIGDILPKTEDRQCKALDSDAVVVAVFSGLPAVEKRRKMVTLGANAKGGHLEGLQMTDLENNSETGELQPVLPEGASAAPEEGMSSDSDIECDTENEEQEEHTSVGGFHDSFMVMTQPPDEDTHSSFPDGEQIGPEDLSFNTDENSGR
UniProt Q8TAQ2: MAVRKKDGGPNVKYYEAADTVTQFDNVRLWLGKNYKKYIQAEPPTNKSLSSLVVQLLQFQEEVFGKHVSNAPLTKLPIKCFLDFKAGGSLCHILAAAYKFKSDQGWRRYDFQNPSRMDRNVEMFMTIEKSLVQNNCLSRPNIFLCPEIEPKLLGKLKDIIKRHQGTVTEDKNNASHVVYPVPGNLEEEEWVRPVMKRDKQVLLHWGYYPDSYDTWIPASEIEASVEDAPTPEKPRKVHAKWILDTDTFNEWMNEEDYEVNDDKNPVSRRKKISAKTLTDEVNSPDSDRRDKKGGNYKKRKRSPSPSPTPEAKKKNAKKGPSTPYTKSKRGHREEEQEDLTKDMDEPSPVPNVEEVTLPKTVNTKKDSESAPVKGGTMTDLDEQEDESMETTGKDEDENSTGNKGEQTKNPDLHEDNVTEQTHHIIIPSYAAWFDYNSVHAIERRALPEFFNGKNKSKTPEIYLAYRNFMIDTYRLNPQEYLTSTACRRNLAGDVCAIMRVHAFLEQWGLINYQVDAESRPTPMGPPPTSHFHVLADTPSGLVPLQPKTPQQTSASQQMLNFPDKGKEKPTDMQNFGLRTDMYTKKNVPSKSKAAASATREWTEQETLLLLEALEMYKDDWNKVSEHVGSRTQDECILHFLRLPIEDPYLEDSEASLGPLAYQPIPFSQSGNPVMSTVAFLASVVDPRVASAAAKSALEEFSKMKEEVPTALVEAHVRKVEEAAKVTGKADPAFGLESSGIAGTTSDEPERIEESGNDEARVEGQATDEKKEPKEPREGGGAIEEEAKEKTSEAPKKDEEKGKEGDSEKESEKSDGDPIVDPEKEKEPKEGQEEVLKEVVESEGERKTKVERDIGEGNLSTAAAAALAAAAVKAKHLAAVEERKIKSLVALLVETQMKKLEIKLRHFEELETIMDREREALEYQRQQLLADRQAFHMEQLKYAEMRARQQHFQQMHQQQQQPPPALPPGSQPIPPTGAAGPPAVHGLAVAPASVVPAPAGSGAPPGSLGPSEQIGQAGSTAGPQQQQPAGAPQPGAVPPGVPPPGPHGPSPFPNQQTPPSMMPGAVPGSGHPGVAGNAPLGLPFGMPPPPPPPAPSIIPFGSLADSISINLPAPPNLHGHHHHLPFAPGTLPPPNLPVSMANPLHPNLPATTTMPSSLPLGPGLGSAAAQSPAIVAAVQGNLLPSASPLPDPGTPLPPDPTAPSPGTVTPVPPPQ

Target: Tripartite motif-containing 37 (TRIM37) (human (RCC cell lines; the cell line of the Co-IP is not stated)) (UniProt O94972)
Experiment: co-IP; Co-IP from fresh cell protein with antibody on protein A/G magnetic beads (antibody and beads at 4 °C overnight), IP buffer washes, eluted proteins analysed by western blot

In the case of SMARCC2 (from UniProt Q8TAQ2 1-1214), the binding is reported as “binds”.
